PMC11091888, “Evaluation of Fusobacterium nucleatum Enoyl-ACP Reductase (FabK) as a Narrow-Spectrum Drug Target” (ACS Infectious Diseases, 2024)
In brackets after ≈: the same amount, converted by molar mass.

Assay: Cytotoxicity against HCT116 cells (resazurin viability)
Assay type: cell-based
Conditions: human, maximum tested concentration 100 μg/mL
Method: This was done as described[36] using colorectal carcinoma HCT116 and Vero epithelial cells cultured at 37 °C in 5% CO2 in Dulbecco’s modified Eagle’s medium (DMEM) with 4.5 g/L glucose and L-glutamine. The medium was supplemented with 10% v/v FetalGro (Rocky Mountain Biologicals). Approximately 25,000/well were aliquoted into black 96-well plates (Greiner Bio-One) and incubated overnight, before being resuspended in DMEM supplemented with 20% Gibco KnockOut Serum Replacement (Thermo Fisher Scientific). Compounds (100–1.6 μg/mL) were then added to the cells and incubated for 24 h at 37 °C and 5% CO2. Cell viability was analyzed using resazurin as described.[36]

Structure (SMILES): CN[C@@H]1C[C@H]2O[C@@](C)([C@@H]1OC)n1c3ccccc3c3c4c(c5c6ccccc6n2c5c31)C(=O)NC4 [staurosporine, reference compound]
- IC50 at 24 h: 32.6 ± 14.2 µg/mL (≈ 69.9 µM)
